This is an account of results in paper PMC11251518, “A novel reporter for helicase activity in translation uncovers DDX3X interactions” (RNA, 2024).

No constants are given. Whether binding was seen depends on the method and setting. Sequences can lack the tags named with a protein.

This assay addresses T1, Saccharomyces cerevisiae eIF4E (S. cerevisiae, UniProt P07260 1-213, ^15N labeled).
T1 construct: eIF4E of Saccharomyces cerevisiae; source: E. coli BL21-star, purified (nickel resin, TEV cleavage, m^7G cap resin)
T1 sequence (looked up): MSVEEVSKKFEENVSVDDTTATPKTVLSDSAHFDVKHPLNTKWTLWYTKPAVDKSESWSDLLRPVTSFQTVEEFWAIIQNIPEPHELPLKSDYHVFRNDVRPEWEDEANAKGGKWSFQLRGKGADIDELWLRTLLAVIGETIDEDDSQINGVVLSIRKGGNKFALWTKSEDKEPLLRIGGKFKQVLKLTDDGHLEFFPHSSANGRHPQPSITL
The assay is described as follows: NMR titration; ^15N HSQC of 200 μM ^15N S. cerevisiae eIF4E with 250 μM m^7GTP; peptide added to 1 mM; 50 mM phosphate pH 6.5, 50 mM KCl, 298 K, 900 MHz; both purified.

Take ASKGRYIPPHLRNREATKGAA [DDX3X 33–51 peptide]: the binding result is recorded as “no binding (tested: 1 mM)”.
